The results in this text go back to PMC8036411.

These are yes or no findings as the source states them, for the method shown.

The assay has as its target holo-Acinetobacter baumannii acyl carrier protein (Acinetobacter baumannii) (UniProt B7GYR8). Put plainly: NMR spin relaxation (R1, R2, hNOE); backbone dynamics of AbACP, 25 °C, 700 MHz (R2 also at 900 MHz); 0.5 mM protein in 25 mM MES, 5 mM CaCl2, 5 mM dithiothreitol, pH 6.1; average R2/R1 ratio; both purified.

B1: holo-Acinetobacter baumannii acyl carrier protein (protein, UniProt B7GYR8 1-78)
chain: MSDIEQRVKQAVAEQLGLKAEEIKNEASFMDDLGADSLDLVELVMSFENDFDITIPDEDSNEITTVQSAIDYVTKKLG
modifications: 4'-phosphopantetheine prosthetic group attached to S37; 15N- and 13C-labelled
In the case of B1, the binding entry is recorded as “no binding (tested: 0.5 mM)”.
